Results reported in US8404435.
No constants are given. Whether binding was seen depends on the method and setting. Some entries that bind do so weakly or less than the wild type. Blank lines part the entries; values can stand above or below the substance they belong to.

Sequences of proteins named here, by UniProt entry; tags and fusion partners are left off.
UniProt Q00987: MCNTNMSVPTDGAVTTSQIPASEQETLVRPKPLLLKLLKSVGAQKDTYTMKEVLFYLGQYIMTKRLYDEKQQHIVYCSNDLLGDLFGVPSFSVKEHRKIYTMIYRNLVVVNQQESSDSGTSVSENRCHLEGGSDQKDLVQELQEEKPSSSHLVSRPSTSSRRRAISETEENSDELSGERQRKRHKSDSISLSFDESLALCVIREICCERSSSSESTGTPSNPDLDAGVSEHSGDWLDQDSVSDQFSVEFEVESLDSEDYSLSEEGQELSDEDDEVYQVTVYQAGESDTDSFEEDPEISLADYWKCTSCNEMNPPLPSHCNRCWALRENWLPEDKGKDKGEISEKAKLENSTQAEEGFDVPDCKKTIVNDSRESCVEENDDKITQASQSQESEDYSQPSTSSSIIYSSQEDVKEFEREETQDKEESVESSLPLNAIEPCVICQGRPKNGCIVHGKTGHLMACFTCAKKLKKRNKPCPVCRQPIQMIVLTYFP
UniProt Q9NR12: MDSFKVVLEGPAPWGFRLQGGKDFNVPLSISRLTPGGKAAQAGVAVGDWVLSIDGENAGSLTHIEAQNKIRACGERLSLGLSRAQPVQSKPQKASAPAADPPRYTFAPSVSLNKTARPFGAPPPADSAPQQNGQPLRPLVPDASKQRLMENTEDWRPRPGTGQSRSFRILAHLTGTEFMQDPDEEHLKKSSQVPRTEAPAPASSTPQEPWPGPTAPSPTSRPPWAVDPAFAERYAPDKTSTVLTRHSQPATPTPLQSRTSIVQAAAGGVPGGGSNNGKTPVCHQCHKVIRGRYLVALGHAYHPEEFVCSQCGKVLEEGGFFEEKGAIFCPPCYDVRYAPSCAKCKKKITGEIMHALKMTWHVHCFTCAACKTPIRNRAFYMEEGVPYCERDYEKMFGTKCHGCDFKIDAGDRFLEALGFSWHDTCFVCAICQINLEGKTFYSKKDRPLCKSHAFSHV

Tests used:
[1] = biological target: Mdm2 in cells (HCT116, MEF and other cell lines) (UniProt Q00987); experiment: IP and Western blot in cells (FIGS. 5A and 5B)
[2] = biological target: Mdm2 in cells (HCT116, MEF and other cell lines) (UniProt Q00987); experiment: IP in HCT116 p53+/+ or p53-/- cells and MEF cell lines
[3] = biological target: His-Mdm2 separated and purified from E. coli (UniProt Q00987); experiment: in vitro binding, Western blot (FIG. 5C)
[4] = biological target: His-Mdm2 separated and purified from E. coli (UniProt Q00987); experiment: in vitro ubiquitination assay with IP/IB (FIG. 7C)
[5] = biological target: His-Mdm2 separated and purified from E. coli (UniProt Q00987); experiment: summary of the IP and in vitro binding assays (FIGS. 5A to 5C)
[6] = biological target: His-Mdm2 separated and purified from E. coli (UniProt Q00987); experiment: IP/IB of binding proteins in the in vitro ubiquitination reaction (FIG. 7C)
[7] = biological target: His-Mdm2 separated and purified from E. coli (UniProt Q00987); experiment: in vitro binding of proteins purified from E. coli (1 µg His-Mdm2, 0.5 µg Enigma), GST pull-down and IP
[8] = biological target: GST-Mdm2 expressed in 293T cells (UniProt Q00987); experiment: IP with Flag antibody, Western blot with GST antibody, 293T cells (FIG. 5E)
[9] = biological target: GST-Mdm2 expressed in 293T cells (UniProt Q00987); experiment: GST pull-down of GST-Mdm2 mutants from 293 cells expressing tagged Enigma, Western blot (FIG. 5D)
[10] = biological target: GST-Mdm2 expressed in 293T cells (UniProt Q00987); experiment: GST pull-down from 293T cells transfected with Flag-Enigma and GST-Mdm2, Western blot with Flag antibody (FIG. 6A)

binding [1]: binds | binding [2]: binds
Substance: Enigma in cells (HCT116 colon cancer cells and MEF cell lines) (from UniProt Q9NR12 1-457)

binding [3]: binds | binding [4]: binds | binding [5]: binds | binding [6]: binds | binding [7]: binds
Substance: Enigma protein separated and purified from E. coli (from UniProt Q9NR12 1-457)

binding [8]: binds | binding [9]: binds | binding [10]: binds
Substance: Flag-Enigma expressed in mammalian cells from pCMV Taq2B (from UniProt Q9NR12 1-457)
